From patent publication US20050014679 (published 2005) come the findings set out here.

This data set in a line: general procedure: peptide synthesis; NHS esters prepared with DCC/NHS. The note with it: late stage modification step.
[1] abbreviates: analytical reversed-phase HPLC, LC-MS.

As to “A0^ArgB0^ArgB28^Lys-Nε-ArgB29^Pro Insulin”, the “crude HPLC purity” value under setting [1] is given as “approximately 70%”. For the setting “overall”, the step yield entry is listed as “approximately 34%”.
Consider A0^ArgB29^Lys-Nε-Arg-Insulin, for which, where the note is “overall”, the step yield entry is “approximately 30%”.
Take A0^ArgB-1^ArgB0^Arg-Insulin: the step yield turned out to be 12%.
Consider A0^gHRB0^gHRB29^Lys-Nε-gHR-Insulin, for which the “crude LC-MS purity” value under setting [1] is reported as “approximately 60%”. The step yield entry (overall) is “approximately 29%”.
“A21^GlyB29^Lys-Nε-ArgC64^ArgC65^Lys-Nε-Arg-human proinsulin derivative”: under setting [1], the “crude HPLC purity” value is listed as “approximately 65%”.
For A-1^ArgA0^Arg-Insulin, the step yield result (overall) was “approximately 10%”.
In the case of B-1^ArgB0^Arg-Insulin, the step yield entry (overall) is reported as “approximately 8%”.
